Data taken from ChEMBL document CHEMBL3988442, “University of Dundee, Small-Polar-MMV Screening Library” (2021).

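Whole-cell assay for inhibitors of Mycobacterium tuberculosis growth, labelled Cornell in the record; the read-out is not stated. The concentration is filed as 10 mM, unlikely as a test dose, so the dose is not known. Higher means stronger inhibition (inferred from two other growth screens of the library). About 53,000 compounds were tested under these conditions; 1.7% (about 900) showed 50% or more at least once.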

Values are the deposited “Percent Effect”, in %.
The controls that fix the scale are not given in the record; negative values are as filed.
Compounds were drawn at random from those tested, without regard to their results.

- CSCc1cc(F)ccc1CNCc1cccnc1 | 15.67%
- COCC1COCCC12CCN(S(=O)(=O)c1ccc(C)cc1)CC2 (stereo not shown) | -11.24%
- CCn1cnnc1CNC(=O)NC(c1ccccc1)C1CCCC1 (stereo not shown) | -1.07%
- O=S(=O)(Cc1nc(C2CC2)no1)c1cc(F)ccc1F | 14.65%
- CCCN1CCCC2(CCN(S(=O)(=O)c3cc(C)nn3CC)C2)C1=O (stereo not shown) | 17.86%
- COc1ccc(OC)c(CCC(=O)Nc2cc(C)n[nH]2)c1 | 13.47%
- COc1ccccc1OC1(C(=O)O)CCN(c2nccnc2C)CC1 | 19.35%
- O=C(c1cccnc1)N(Cc1ccncc1)C1CC1 | -7.699%
- O=C(Cc1cccs1)NCC1(O)CCSC1 (stereo not shown) | -42.62%
- CCOCCC(=O)NC1(c2cccc(Br)c2)CC1 | -19.97%
- Cc1n[nH]c(C)c1CCN(C)c1ccc(-c2nc(C3CC3)no2)cn1 | 5.142%
- Cn1cnc(S(=O)(=O)NCC2CCN(C(=O)Oc3ccccc3)CC2)c1 | 2.721%
- CC1N(c2cnn(C)c2)C(=O)COC12CCN(c1ccccn1)CC2.O=C(O)C(F)(F)F (stereo not shown) | -9.601%
- CC(C)NC(=O)CCNC(=O)c1c(Br)c2ccccc2n1C | -30.09%
- O=S(=O)(N1CCCC1)N1CCc2sccc2C1 | 5.071%
- Cc1nc(C)n(CC2CCCN(CC(=O)Nc3cccnc3)C2)n1 (stereo not shown) | 13.91%
- Cc1ccc(C(CNCc2cccc3c2OCO3)N2CCOCC2)o1 (stereo not shown) | 9.251%
- Cn1ncc2c(=O)[nH]c(CN(Cc3ccco3)C3CCCC3)nc21 | 0.5271%
- FC(F)(F)c1ccccc1CN1CCOC[C@H](Oc2cccnc2)C1 | 14.72%
- O=C1NCCCCC1NC(=O)N1CCCc2ccccc21 (stereo not shown) | 14.66%
- Cc1ccc(S(=O)(=O)NC2CNC(=O)C2)cc1C (stereo not shown) | -21.73%
- Cl.c1ccc(CCNc2cccc(C3CCCNC3)n2)cc1 (stereo not shown) | 12.44%
- CC(NC(=O)CCc1cccs1)c1nnc2n1CCCCC2 (stereo not shown) | -27.61%
- COc1ccccc1C1(CNCc2ccc(C#N)cc2)CCOCC1 | 14.47%
- CCOC(=O)CSc1ccc(-c2nc(CC)no2)cn1 | 13.64%
- O=C(O)C(F)(F)F.O=C(c1cc[nH]n1)N1CCc2onc(COc3cccnc3)c2C1 | -26.26%
- C1CN(CCN2CCOCC2)CCN1 | -92.75%
- c1nc(N2CCCC2)ncc1CN1CCCC(CN2CCCCC2)C1 (stereo not shown) | -5.719%
- CC(C)C(NC(=O)c1ccccc1)C(=O)N1CCC2(CC1)OCCO2 (stereo not shown) | 24.3%
- Cc1ccc2c(CC(=O)N3C[C@@H](O)[C@H](N(C)C)C3)coc2c1 | 28.82%
- Cc1cc(CN2CCC(C(=O)O)(n3ccc(-c4ccco4)n3)CC2)on1 | 22.94%
- Cc1ccc(C(=O)N(C)CCOc2ccccc2F)c(=O)[nH]1 | -0.2295%
- COCCCN1CCc2cncnc2C1 | 18.47%
- NC(=O)C1CCN(C(=O)Cn2ccc3cc(Br)ccc32)CC1 | 3.506%
- CCn1ncc2c1CCCC2NCc1csc(COC)n1 (stereo not shown) | -12.54%
- Cc1ccn(CCNC(=O)C2(C)CC(c3ccccc3)=NO2)n1 (stereo not shown) | 14.56%
- Cc1[nH]c2ccc(CNC(=O)c3ccc(CN4CCCC4)o3)cc2c1C | 6.534%
- CNC(=O)C1(C)CN(S(=O)(=O)c2cccc(OC)c2)CCO1 (stereo not shown) | 3.029%
- O=C(O)C(F)(F)F.[H][C@@]12CCN(C3CCCC3)C[C@]1([H])OCCN(Cc1ccc(OC)cc1)C2=O | -0.9781%
- Cc1ccc(CN(CCCn2ccnc2)Cc2cnc(N(C)C)nc2)s1.O=C(O)CC(O)(CC(=O)O)C(=O)O | -53.97%
- COCc1nc(NCC2CCS(=O)(=O)C2)c2cnn(C)c2n1 (stereo not shown) | 15.87%
- Cc1ccc2c(n1)N(Cc1cccnc1)CCN(Cc1cnn(C)c1)C2 | 10.48%
- O=C(O)c1cn(-c2ccccn2)c(=O)c2ccccc12 | -15.24%
- CC1(C)CN=C(N2CCN(CC3CCCCO3)CC2)S1 (stereo not shown) | 18.3%
- OCCCN1CCOC(c2ccc(F)cc2)C1 (stereo not shown) | 7.875%
- CNCC(=O)N1CCC(c2cccc(Oc3ccccc3)n2)CC1 | 5.467%
- CCn1nc(C(=O)N2CCNCC2C(=O)Nc2ccc(C)nc2)cc1C (stereo not shown) | -16.27%
- CC(Nc1cnn(C)c(=O)c1Cl)c1ccc(F)c(F)c1 (stereo not shown) | -35.14%
- CCS(=O)(=O)c1ccc(N2CCC(NC(C)=O)CC2)cc1 | 23.3%
- CC(O)c1cccc(N2CCC3(CCC(=O)N(CC(N)=O)C3)CC2)n1 (stereo not shown) | -1.534%
- CCn1c(CN(C)C)nnc1C1CCN(c2ccnc(C)c2)CC1 | 11.16%
- COC(=O)C(O)C1CCN(Cc2cccc(-n3cccn3)c2)CC1 (stereo not shown) | 19.25%
- Cc1ccc(NC(=O)CN(C)C(=O)c2ccc(-n3cccc3)nc2)nc1 | -4.651%
- COC(=O)N1CCCN(Cn2nc(C)c(Br)c2C)CC1 | -6.823%
- COc1ccc(C2CCCCCN2Cc2nnc(C)o2)cc1 (stereo not shown) | 12.4%
- Cc1cc(=O)[nH]c(=O)n1Cc1ncc(-c2ccccc2C(=O)O)s1 | 8.976%

3 of the entries, repeated:

| structure | percent effect |
|---|---|
| `Cc1cc(=O)[nH]c(=O)n1Cc1ncc(-c2ccccc2C(=O)O)s1` | 8.976 |
| `Cc1n[nH]c(C)c1CCN(C)c1ccc(-c2nc(C3CC3)no2)cn1` | 5.142 |
| `Cc1ccc2c(CC(=O)N3C[C@@H](O)[C@H](N(C)C)C3)coc2c1` | 28.82 |